In article PMC529442:
No constants are given. Whether binding was seen depends on the method and setting. Some entries that bind do so weakly or less than the wild type.

Protein sequences, listed by entry. Tags and fused reporters are not part of them.
UniProt Q24572: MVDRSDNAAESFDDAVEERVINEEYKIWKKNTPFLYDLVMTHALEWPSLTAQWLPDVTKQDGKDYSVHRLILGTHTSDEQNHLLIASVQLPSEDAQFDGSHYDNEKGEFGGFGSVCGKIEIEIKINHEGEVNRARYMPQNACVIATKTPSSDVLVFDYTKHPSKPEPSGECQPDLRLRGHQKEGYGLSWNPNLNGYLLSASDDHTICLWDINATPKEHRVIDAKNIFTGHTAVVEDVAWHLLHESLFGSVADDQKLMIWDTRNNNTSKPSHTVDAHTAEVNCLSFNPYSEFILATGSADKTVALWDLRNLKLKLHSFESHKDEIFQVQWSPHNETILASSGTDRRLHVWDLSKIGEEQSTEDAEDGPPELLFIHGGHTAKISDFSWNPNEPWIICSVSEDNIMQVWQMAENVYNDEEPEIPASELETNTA
UniProt Q94517: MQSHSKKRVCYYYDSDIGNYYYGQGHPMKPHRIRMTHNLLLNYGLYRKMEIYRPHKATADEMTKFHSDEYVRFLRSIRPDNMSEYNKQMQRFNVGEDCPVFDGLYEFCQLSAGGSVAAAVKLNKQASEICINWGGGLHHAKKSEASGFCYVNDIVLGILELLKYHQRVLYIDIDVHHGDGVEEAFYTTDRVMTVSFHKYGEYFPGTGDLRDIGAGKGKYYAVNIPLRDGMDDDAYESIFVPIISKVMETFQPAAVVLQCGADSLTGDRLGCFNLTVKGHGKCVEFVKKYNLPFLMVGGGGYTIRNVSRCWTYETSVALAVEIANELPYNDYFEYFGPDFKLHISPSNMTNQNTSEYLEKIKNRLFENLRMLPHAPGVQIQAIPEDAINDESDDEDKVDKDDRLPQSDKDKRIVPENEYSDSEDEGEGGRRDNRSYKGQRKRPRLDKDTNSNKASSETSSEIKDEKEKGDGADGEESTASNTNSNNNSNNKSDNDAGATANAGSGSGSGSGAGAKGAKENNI
UniProt O97159: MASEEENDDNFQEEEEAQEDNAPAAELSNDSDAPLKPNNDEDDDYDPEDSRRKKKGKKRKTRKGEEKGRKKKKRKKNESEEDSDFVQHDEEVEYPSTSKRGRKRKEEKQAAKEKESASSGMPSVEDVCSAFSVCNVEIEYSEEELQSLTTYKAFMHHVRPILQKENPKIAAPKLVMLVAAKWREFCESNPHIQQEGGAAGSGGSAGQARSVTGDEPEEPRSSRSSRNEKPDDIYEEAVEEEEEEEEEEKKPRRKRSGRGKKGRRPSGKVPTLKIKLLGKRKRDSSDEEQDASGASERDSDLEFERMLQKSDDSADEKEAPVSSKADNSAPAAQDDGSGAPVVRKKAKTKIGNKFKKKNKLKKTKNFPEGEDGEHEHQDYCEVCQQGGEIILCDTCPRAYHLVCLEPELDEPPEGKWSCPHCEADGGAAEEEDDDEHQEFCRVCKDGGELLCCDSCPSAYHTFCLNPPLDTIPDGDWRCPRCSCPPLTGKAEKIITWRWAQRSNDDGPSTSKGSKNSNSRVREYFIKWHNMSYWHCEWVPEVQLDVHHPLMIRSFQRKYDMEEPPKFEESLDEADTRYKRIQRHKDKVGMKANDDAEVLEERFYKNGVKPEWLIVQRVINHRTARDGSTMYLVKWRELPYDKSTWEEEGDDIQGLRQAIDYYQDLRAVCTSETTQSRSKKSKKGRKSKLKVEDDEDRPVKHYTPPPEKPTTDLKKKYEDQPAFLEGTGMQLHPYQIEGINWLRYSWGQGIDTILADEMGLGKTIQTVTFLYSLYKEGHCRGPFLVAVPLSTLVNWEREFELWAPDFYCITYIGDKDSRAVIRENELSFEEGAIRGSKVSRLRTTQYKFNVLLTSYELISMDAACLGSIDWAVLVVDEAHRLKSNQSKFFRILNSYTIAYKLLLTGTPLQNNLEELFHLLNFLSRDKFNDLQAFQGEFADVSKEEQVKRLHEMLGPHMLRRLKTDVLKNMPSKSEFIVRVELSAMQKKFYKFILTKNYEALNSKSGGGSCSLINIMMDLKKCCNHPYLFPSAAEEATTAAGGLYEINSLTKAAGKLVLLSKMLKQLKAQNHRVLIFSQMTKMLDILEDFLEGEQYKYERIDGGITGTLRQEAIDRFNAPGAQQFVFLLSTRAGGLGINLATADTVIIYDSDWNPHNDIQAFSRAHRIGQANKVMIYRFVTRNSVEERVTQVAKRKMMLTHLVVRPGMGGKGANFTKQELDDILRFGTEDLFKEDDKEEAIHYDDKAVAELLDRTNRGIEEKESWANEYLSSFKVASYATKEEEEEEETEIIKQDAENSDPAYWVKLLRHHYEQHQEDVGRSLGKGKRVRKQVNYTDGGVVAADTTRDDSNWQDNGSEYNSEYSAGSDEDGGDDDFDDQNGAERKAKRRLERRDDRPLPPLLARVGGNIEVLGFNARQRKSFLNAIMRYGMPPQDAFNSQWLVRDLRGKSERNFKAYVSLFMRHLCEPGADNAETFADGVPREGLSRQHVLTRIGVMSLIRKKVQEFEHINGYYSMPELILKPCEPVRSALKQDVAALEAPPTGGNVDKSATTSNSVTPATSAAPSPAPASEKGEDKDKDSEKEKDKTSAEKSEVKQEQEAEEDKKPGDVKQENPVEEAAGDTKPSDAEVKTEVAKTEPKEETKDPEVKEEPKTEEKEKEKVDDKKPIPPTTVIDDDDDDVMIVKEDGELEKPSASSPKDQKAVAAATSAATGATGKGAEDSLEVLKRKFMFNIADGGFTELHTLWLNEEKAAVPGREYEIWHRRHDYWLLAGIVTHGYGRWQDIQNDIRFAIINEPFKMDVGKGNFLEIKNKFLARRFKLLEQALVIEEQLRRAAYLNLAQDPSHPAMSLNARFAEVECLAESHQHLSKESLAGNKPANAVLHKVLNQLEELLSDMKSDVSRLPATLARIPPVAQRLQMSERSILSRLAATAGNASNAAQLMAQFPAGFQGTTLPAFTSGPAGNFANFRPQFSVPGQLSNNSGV

Key:
[1] = target: T1, MTA-like (endogenous, embryonic nuclear extract) (Drosophila (endogenous in embryos)) (UniProt Q9VNF6); assay: SEC; Superose 6 HR 10/30 gel filtration of nuclear extracts from 2-4 h and 0-12 h wild type embryos; 20 mM Hepes pH 7.6, 300 mM KCl; fractions analysed by Western blotting (cofractionation)
T1 sequence: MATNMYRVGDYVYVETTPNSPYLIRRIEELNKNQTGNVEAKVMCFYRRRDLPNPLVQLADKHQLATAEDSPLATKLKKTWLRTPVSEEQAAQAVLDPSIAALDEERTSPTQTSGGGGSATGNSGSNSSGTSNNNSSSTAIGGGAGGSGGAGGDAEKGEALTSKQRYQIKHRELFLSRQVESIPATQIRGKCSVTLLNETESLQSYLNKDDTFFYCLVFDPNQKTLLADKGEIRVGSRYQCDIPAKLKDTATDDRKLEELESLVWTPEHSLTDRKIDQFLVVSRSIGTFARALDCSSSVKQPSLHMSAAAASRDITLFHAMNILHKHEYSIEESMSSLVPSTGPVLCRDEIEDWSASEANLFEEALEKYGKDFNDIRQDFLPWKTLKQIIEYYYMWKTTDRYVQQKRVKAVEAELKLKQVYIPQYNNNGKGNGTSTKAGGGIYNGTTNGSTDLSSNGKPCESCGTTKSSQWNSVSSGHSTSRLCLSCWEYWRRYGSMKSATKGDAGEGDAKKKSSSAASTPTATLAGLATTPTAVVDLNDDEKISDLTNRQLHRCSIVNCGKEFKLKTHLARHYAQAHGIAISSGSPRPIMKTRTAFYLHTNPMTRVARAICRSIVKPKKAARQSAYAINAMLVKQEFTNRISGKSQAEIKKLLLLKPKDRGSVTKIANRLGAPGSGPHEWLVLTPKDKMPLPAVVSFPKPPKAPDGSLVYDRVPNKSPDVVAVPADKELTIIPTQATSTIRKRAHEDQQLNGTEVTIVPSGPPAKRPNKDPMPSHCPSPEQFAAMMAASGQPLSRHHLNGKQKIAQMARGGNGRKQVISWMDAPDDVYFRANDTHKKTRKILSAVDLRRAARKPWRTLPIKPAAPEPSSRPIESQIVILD

[2] = target: p55 (yeast two-hybrid fusion) (Drosophila) (UniProt Q24572); assay: two-hybrid; Matchmaker Two-Hybrid system 3, strain AH109; growth on high-stringency plates (SD/-Ade/-His/-Leu/-Trp), confirmed by X-Gal staining of filter-lifted colonies
[3] = target: RPD3 (yeast two-hybrid fusion) (Drosophila) (UniProt Q94517); assay: as above
[4] = target: MI-2 (yeast two-hybrid fusion) (Drosophila) (UniProt O97159); assay: as above

binding [1] | binding [2] | binding [3] | binding [4] | Substance
binds |  |  |  | MI-2 (endogenous, embryonic nuclear extract) (from UniProt O97159 1-1982)
 | binds | no binding |  | RPD3 (yeast two-hybrid fusion) (from UniProt Q94517 1-521)
 | binds |  | binds | p55 (yeast two-hybrid fusion) (from UniProt Q24572 1-430)
